# Source: the supplement of paper PMC12823440, “Inhibitors supercharge kinase turnover through native proteolytic circuits” (Nature, 2025)
# Amino acid sequences for entries named in this document (tags omitted). A change or cut given only in a name is not applied to a line headed by its entry.
# UniProt P07949, whole entry, looked up: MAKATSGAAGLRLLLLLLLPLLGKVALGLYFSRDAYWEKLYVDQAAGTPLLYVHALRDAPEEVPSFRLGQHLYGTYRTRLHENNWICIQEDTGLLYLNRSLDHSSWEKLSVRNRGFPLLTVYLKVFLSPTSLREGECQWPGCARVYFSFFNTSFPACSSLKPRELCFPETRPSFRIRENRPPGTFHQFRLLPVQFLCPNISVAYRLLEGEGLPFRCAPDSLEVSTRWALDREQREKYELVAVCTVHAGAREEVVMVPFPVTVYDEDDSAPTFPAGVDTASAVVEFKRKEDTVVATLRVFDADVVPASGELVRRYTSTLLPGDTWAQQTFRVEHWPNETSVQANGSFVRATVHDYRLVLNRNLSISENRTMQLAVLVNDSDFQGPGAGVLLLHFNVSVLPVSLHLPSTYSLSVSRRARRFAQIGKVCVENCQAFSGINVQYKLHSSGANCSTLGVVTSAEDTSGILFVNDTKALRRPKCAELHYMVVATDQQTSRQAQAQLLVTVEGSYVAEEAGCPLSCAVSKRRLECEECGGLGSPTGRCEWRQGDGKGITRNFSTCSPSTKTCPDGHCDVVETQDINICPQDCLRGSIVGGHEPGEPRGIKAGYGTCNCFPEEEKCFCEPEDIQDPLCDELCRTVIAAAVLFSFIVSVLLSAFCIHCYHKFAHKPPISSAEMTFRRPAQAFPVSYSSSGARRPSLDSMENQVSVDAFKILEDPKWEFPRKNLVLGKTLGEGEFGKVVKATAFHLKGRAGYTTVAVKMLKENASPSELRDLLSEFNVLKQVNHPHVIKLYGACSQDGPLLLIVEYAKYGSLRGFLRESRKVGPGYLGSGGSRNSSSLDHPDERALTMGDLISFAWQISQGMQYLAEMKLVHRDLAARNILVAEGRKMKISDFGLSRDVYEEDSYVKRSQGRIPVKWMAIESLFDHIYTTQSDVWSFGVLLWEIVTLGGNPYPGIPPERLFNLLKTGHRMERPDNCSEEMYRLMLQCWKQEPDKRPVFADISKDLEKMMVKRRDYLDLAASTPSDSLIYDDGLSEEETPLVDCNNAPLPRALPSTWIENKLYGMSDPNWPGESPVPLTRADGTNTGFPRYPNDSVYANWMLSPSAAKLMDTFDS
# UniProt Q9BRS2: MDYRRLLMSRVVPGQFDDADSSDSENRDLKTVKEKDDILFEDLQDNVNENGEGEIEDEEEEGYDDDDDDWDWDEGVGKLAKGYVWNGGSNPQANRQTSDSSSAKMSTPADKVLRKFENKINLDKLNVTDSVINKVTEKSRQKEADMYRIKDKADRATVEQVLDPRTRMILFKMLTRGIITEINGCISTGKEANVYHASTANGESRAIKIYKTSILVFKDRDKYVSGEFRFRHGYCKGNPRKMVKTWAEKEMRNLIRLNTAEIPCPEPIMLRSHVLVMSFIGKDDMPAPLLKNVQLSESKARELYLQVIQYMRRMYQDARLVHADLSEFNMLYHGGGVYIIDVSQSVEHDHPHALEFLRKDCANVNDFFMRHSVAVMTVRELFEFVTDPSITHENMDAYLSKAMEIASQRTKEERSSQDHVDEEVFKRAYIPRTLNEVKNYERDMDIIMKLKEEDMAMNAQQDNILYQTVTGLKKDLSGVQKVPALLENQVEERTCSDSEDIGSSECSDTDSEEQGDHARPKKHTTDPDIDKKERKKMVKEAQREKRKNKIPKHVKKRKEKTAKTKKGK
# UniProt Q15208: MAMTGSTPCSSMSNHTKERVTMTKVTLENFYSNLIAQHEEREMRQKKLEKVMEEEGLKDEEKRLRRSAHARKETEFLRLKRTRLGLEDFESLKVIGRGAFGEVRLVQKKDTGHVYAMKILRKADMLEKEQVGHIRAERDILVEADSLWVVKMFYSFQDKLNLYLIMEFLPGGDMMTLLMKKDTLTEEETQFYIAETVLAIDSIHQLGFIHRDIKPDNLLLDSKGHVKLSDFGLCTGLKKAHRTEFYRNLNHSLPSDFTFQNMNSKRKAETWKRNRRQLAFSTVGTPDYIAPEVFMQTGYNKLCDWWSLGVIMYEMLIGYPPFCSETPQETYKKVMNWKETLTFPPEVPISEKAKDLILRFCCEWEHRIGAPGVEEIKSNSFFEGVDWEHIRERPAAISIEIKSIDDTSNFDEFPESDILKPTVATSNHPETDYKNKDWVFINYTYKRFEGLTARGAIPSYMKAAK
# UniProt P42680: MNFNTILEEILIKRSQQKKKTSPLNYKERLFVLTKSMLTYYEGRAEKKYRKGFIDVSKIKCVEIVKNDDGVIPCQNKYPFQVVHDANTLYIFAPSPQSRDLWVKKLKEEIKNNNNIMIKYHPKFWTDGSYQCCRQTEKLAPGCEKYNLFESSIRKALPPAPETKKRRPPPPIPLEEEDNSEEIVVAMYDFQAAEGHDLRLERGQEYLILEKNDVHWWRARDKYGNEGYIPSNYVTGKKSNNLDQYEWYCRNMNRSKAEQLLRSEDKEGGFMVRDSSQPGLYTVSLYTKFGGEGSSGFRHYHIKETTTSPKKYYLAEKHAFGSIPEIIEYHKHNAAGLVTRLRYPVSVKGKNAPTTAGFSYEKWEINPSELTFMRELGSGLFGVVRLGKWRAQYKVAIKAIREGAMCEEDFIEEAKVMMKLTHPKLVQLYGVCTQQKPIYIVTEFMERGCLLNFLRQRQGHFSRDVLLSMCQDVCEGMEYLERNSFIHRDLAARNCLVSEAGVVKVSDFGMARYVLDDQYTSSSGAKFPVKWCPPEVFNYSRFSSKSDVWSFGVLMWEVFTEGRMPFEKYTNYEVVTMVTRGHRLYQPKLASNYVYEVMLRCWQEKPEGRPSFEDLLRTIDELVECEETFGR
# UniProt P29597: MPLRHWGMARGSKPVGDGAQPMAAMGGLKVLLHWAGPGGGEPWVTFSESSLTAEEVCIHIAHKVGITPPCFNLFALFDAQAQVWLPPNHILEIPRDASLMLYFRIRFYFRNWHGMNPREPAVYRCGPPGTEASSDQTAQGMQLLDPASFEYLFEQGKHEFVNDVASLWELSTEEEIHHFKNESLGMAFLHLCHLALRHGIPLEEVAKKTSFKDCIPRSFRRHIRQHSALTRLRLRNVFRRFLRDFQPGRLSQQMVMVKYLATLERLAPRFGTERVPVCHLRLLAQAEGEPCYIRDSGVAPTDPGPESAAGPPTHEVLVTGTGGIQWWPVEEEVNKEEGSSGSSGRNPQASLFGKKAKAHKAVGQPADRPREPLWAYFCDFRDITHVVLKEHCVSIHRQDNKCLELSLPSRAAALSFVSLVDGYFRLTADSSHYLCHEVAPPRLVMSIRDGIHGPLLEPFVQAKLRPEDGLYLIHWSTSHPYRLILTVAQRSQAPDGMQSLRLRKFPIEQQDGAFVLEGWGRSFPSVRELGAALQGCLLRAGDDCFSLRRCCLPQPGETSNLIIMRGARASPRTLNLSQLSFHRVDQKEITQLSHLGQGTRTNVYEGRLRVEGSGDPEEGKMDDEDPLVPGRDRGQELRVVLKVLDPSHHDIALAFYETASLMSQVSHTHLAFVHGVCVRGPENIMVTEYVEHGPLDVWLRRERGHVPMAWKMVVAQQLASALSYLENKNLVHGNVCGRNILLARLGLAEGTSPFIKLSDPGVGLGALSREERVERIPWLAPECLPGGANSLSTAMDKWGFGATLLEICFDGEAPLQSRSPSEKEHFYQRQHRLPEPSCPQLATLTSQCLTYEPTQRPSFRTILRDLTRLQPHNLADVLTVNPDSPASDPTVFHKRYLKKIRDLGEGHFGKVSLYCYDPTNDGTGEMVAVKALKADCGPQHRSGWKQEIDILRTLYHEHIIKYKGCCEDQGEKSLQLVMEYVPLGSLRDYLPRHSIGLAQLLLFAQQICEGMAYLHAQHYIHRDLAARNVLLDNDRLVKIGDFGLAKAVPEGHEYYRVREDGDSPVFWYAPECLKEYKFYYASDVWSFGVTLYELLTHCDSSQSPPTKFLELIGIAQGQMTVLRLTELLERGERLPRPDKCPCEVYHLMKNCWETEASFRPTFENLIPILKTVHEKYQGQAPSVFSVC
# UniProt Q6PHR2: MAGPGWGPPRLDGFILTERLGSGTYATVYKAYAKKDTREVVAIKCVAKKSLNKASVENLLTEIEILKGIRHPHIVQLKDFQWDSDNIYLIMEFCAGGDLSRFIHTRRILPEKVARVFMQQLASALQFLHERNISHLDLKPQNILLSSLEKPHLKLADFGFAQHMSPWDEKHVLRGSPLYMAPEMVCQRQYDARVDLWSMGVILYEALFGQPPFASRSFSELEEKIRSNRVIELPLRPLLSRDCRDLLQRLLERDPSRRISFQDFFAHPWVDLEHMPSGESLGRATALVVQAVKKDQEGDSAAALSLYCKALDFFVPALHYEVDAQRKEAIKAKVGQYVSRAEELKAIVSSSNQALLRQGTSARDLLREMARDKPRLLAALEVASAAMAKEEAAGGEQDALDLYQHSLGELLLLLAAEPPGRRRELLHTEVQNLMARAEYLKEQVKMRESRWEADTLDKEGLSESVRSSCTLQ
# UniProt P07947, whole entry, looked up: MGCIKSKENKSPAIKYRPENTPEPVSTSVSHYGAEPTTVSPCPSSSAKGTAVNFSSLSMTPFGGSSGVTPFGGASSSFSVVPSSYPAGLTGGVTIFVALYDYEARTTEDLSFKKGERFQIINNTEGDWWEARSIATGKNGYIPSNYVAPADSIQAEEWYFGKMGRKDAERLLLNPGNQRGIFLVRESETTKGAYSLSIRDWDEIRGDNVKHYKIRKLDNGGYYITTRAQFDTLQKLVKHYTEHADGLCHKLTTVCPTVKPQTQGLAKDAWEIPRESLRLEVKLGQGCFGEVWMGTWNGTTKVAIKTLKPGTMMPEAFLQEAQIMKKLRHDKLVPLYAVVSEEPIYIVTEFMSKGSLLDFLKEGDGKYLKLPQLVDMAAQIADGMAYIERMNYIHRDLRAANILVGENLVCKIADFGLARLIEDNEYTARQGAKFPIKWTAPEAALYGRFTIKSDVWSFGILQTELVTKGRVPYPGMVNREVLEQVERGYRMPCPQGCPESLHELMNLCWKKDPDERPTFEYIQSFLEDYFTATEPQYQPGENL
# UniProt P00519, whole entry: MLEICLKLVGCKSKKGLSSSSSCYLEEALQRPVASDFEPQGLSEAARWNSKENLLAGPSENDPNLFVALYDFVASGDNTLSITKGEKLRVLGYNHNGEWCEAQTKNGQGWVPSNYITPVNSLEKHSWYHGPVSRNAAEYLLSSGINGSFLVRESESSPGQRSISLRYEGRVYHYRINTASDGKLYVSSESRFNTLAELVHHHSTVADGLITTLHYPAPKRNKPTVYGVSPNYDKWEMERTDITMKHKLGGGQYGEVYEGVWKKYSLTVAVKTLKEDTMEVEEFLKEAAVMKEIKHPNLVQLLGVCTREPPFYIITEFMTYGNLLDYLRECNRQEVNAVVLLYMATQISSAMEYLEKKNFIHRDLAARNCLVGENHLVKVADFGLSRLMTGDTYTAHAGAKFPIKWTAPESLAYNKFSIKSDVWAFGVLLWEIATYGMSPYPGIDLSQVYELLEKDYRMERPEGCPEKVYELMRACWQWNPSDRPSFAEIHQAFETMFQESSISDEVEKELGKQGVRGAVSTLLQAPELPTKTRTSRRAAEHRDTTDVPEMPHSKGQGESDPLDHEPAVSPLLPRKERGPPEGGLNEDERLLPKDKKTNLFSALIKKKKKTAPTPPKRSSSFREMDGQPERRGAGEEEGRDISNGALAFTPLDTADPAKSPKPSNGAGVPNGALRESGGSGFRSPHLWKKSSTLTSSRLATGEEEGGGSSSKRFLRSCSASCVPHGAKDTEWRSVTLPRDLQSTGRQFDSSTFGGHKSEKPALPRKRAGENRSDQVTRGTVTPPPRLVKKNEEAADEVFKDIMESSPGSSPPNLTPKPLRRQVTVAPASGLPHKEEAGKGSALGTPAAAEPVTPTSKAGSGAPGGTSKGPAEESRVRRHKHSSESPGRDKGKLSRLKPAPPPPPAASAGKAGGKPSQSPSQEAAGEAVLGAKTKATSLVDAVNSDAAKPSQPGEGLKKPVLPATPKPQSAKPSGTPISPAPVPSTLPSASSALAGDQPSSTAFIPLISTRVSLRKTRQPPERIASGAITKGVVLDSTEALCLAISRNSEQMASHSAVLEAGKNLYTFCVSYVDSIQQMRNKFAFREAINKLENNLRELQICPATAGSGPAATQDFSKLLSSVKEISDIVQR
# UniProt P31749: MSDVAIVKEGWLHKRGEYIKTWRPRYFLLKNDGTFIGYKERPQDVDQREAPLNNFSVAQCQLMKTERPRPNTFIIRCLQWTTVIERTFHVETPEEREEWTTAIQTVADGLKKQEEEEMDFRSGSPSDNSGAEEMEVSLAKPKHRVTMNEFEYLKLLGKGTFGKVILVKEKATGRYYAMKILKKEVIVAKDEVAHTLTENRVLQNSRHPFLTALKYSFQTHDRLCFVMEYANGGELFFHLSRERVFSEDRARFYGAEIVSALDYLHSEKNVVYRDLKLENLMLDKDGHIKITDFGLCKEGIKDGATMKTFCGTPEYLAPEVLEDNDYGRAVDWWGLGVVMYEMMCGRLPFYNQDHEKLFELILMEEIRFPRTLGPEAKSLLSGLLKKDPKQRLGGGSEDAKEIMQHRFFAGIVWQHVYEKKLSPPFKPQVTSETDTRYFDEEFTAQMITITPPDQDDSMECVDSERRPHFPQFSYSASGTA
# Counter-ions that a name gives are not always drawn. Some of the results follow. Hit calls seldom repeat between salt and free forms of one compound.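 Kinases were expressed as nanoluciferase fusions in K562 cells and luminescence was read every 4 h between 2 and 18 h as percent of control, DMSO set to 100% and a positive control to 0%. A time point counts as decreased when the signal drops significantly (2 sigma). The hit call is the authors' own, does not follow from the count of time points alone, and its rule is not shown.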
# Assays:
# Conditions in all cases: K562; 2-18 h
# RET = RET (UniProt P07949); test: kinase-Nluc reporter destabilization hit call (1 = scored as downregulated) (binary); higher = compound decreases kinase abundance
# [1] = molecular target: RET_M918T (clone: RET_mut) (UniProt P07949); test: as above
# RIOK1 = RIOK1 (UniProt Q9BRS2); test: as above
# RIPK1 = RIPK1 (UniProt Q13546); test: as above
# RIPK2 = RIPK2 (UniProt O43353); test: as above
# ROR2 = ROR2 (UniProt Q01974); test: as above
# RPS6KA1 = RPS6KA1 (UniProt Q15418); test: as above
# SPHK1 = SPHK1 (UniProt Q9NYA1); test: as above
# SRC = SRC (UniProt P12931); test: as above
# STK24 = STK24 (UniProt Q9Y6E0); test: as above
# STK38 = STK38 (UniProt Q15208); test: as above
# SYK = SYK (UniProt P43405); test: as above
# TEC = TEC (UniProt P42680); test: as above
# TYK2 = TYK2 (UniProt P29597); test: as above
# ULK3 = ULK3 (UniProt Q6PHR2); test: as above
# YES1 = YES1 (UniProt P07947); test: as above
# ZAK = ZAK (UniProt Q9NYL2); test: as above
# ZAP70 = ZAP70 (UniProt P43403); test: as above
# ABL1 = ABL1 (UniProt P00519); test: number of time points (of 5) at which kinase-Nluc abundance scored as decreased, DMSO-normalised (count); higher = more persistent destabilization
# AKT1 = AKT1 (UniProt P31749); test: as above
Structure (SMILES),kinase-Nluc reporter destabilization hit call (RET),kinase-Nluc reporter destabilization hit call [1],kinase-Nluc reporter destabilization hit call (RIOK1),kinase-Nluc reporter destabilization hit call (RIPK1),kinase-Nluc reporter destabilization hit call (RIPK2),kinase-Nluc reporter destabilization hit call (ROR2),kinase-Nluc reporter destabilization hit call (RPS6KA1),kinase-Nluc reporter destabilization hit call (SPHK1),kinase-Nluc reporter destabilization hit call (SRC),kinase-Nluc reporter destabilization hit call (STK24),kinase-Nluc reporter destabilization hit call (STK38),kinase-Nluc reporter destabilization hit call (SYK),kinase-Nluc reporter destabilization hit call (TEC),kinase-Nluc reporter destabilization hit call (TYK2),kinase-Nluc reporter destabilization hit call (ULK3),kinase-Nluc reporter destabilization hit call (YES1),kinase-Nluc reporter destabilization hit call (ZAK),kinase-Nluc reporter destabilization hit call (ZAP70),number of time points (ABL1),number of time points (AKT1)
Cc1cccc(Oc2cnc(=O)[nH]c2)c1 [Tolimidone] (10 µM),inactive: 0,inactive: 0,inactive: 0,inactive: 0,inactive: 0,inactive: 0,inactive: 0,inactive: 0,inactive: 0,inactive: 0,inactive: 0,inactive: 0,inactive: 0,inactive: 0,inactive: 0,inactive: 0,inactive: 0,inactive: 0,0,0
COc1cc2c(N3CCN(C(=O)Nc4ccc(OC(C)C)cc4)CC3)ncnc2cc1OCCCN1CCCCC1 [Tandutinib] (10 µM),inactive: 0,inactive: 0,inactive: 0,inactive: 0,inactive: 0,inactive: 0,inactive: 0,inactive: 0,inactive: 0,inactive: 0,inactive: 0,inactive: 0,inactive: 0,inactive: 0,inactive: 0,inactive: 0,inactive: 0,inactive: 0,0,0
CC1CCc2c(cc(Br)c(F)c2Br)N1C=O (stereo not given) (10 µM),inactive: 0,inactive: 0,inactive: 0,inactive: 0,inactive: 0,inactive: 0,inactive: 0,inactive: 0,inactive: 0,inactive: 0,inactive: 0,inactive: 0,inactive: 0,inactive: 0,inactive: 0,inactive: 0,inactive: 0,inactive: 0,0,0
NC(=O)c1nc(Nc2ccccc2)sc1NC(=O)C1CCCCC1 (10 µM),inactive: 0,inactive: 0,inactive: 0,inactive: 0,inactive: 0,inactive: 0,inactive: 0,inactive: 0,inactive: 0,inactive: 0,inactive: 0,inactive: 0,inactive: 0,inactive: 0,inactive: 0,inactive: 0,inactive: 0,inactive: 0,0,0
C=CC(=O)Nc1cccc(Nc2nc(Nc3ccc(N4CCN(C(C)=O)CC4)cc3OC)ncc2C(F)(F)F)c1 [Rociletinib hydrobromide] (10 µM),inactive: 0,inactive: 0,inactive: 0,inactive: 0,inactive: 0,inactive: 0,inactive: 0,inactive: 0,inactive: 0,inactive: 0,inactive: 0,inactive: 0,inactive: 0,inactive: 0,inactive: 0,inactive: 0,inactive: 0,inactive: 0,0,0
COCCNc1nc2ccc(C#CC3(O)CCCCC3)cc2n1-c1ccnc(N)n1 (10 µM),inactive: 0,inactive: 0,inactive: 0,inactive: 0,inactive: 0,inactive: 0,inactive: 0,inactive: 0,inactive: 0,inactive: 0,inactive: 0,inactive: 0,inactive: 0,inactive: 0,inactive: 0,inactive: 0,inactive: 0,inactive: 0,0,0
Cc1cccc(-c2[nH]ncc2-c2ccc(F)c(-c3cnn(CCO)c3)c2)n1 (10 µM),inactive: 0,inactive: 0,inactive: 0,inactive: 0,inactive: 0,inactive: 0,inactive: 0,inactive: 0,inactive: 0,inactive: 0,inactive: 0,inactive: 0,inactive: 0,inactive: 0,inactive: 0,inactive: 0,inactive: 0,inactive: 0,0,0
Cc1ccc(C(=O)Nc2ccc(Oc3cc4cnn(C)c4cc3-c3cn[nH]c3)c(F)c2)c(=O)n1-c1ccc(F)cc1 [Merestinib] (2.5 µM),inactive: 0,inactive: 0,inactive: 0,inactive: 0,inactive: 0,inactive: 0,inactive: 0,inactive: 0,inactive: 0,inactive: 0,inactive: 0,inactive: 0,inactive: 0,inactive: 0,inactive: 0,inactive: 0,inactive: 0,inactive: 0,0,0
Cc1ccc(C(=O)Nc2ccc(Oc3cc4cnn(C)c4cc3-c3cn[nH]c3)c(F)c2)c(=O)n1-c1ccc(F)cc1 [Merestinib dihydrochloride] (2.5 µM),inactive: 0,inactive: 0,inactive: 0,inactive: 0,inactive: 0,inactive: 0,inactive: 0,inactive: 0,inactive: 0,inactive: 0,inactive: 0,inactive: 0,inactive: 0,inactive: 0,inactive: 0,inactive: 0,inactive: 0,inactive: 0,0,0

# Single values from the entries so far.
# Entry of CC1CCc2c(cc(Br)c(F)c2Br)N1C=O (stereo not given) (10 µM) under kinase-Nluc reporter destabilization hit call (STK38): inactive: 0
# Entry of COc1cc2c(N3CCN(C(=O)Nc4ccc(OC(C)C)cc4)CC3)ncnc2cc1OCCCN1CCCCC1 [Tandutinib] (10 µM) under kinase-Nluc reporter destabilization hit call (RIPK2): inactive: 0
